Data reported in publication PMC8278108.
Results are given in words; binding and its absence hold for the method and conditions named. In cells and extracts the contact can be indirect. Some binding calls cover weakened binding; strength is not graded here.

The chains behind the UniProt entries cited, without tags or fusion partners.
UniProt O43474: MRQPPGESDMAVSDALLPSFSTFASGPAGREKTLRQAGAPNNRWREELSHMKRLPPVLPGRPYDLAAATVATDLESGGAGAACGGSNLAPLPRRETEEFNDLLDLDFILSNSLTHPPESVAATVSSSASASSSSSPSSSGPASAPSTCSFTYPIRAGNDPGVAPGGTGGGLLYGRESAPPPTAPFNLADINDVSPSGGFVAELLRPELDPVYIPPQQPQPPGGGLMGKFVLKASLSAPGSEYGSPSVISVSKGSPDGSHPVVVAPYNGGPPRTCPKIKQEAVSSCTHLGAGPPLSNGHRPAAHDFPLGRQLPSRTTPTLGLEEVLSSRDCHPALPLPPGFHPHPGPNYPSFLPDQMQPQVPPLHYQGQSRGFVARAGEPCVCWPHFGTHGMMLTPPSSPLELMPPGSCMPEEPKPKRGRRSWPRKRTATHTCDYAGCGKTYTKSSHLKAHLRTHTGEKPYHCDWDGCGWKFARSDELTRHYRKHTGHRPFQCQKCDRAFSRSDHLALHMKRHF
UniProt P51784: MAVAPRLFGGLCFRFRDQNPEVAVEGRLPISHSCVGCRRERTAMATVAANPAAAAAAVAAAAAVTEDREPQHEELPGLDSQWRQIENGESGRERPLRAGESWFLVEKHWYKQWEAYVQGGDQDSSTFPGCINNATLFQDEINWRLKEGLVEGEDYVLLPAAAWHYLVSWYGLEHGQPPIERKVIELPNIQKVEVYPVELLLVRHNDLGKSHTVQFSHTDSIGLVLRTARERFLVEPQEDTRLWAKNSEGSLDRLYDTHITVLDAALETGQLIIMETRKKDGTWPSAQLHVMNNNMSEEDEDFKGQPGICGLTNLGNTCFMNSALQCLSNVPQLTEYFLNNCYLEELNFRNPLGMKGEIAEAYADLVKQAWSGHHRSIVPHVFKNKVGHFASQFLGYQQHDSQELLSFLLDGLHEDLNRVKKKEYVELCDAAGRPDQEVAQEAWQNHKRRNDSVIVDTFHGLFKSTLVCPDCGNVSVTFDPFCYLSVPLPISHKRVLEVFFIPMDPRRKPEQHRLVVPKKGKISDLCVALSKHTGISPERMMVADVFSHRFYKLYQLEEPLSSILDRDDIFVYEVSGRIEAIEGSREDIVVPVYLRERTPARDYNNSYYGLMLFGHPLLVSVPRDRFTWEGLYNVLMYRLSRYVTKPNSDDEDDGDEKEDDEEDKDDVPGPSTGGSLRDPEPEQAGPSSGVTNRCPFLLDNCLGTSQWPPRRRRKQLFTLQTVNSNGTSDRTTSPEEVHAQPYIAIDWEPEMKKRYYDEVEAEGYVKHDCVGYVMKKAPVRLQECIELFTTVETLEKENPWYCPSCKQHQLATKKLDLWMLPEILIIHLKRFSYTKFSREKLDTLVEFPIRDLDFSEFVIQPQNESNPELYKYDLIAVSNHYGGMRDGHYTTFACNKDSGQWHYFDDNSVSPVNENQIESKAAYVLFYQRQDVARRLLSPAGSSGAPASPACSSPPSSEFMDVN

Tests used:
[1] = molecular target: Flag-tagged KLF4 (Krüppel-like factor 4), full length (human) (UniProt O43474); experiment: co-IP; cytosolic and nuclear fractions of HEK293 cells co-transfected with Myc-USP11 and Flag-KLF4; IP with anti-Flag beads, blot with anti-Myc
[2] = molecular target: Flag-tagged KLF4 (Krüppel-like factor 4), full length (human) (UniProt O43474); experiment: co-IP; HEK293 cells co-transfected with Flag-KLF4 and Myc-USP11 (in Figure 2B also HA-Ub); Nonidet P-40 lysate; IP with anti-Flag beads, blot with anti-Myc
[3] = molecular target: Flag-tagged KLF4, full length, expressed in HepG2 cells (human) (UniProt O43474); experiment: co-IP; cytosolic and nuclear fractions of HepG2 cells co-transfected with Myc-USP11 and Flag-KLF4; IP with anti-Flag beads, blot with anti-Myc

binding [1]	binding [2]	binding [3]	Substance
binds	binds	–	Myc-tagged USP11 (ubiquitin-specific peptidase 11), full length, wild type (from UniProt P51784 1-963) (enzyme)
–	–	binds	Myc-tagged USP11, full length, expressed in HepG2 cells (from UniProt P51784 1-963) (enzyme)
